# From PubChem BioAssay AID485314 (National Center for Advancing Translational Sciences (NCATS), 2010)
# The whole screen tested about 340,000 compounds, of which about 4,500 (1.3%) were called active. The inconclusive results got no clear call from the source; some entries with a clear call stand among them for comparison. Calls come from the whole dose curve; as a rule, active = well fitted inhibition curve with a large enough effect; inconclusive = small, poorly fitted or top-dose-only effect, or another doubt; inactive = no such curve, though single readings can be large or run the other way. Where the call is inconclusive, the potency comes from a doubtful curve fit.
# Target: DNA polymerase beta (Homo sapiens) (UniProt P06746)
# Experiment: qHTS Assay for Inhibitors of DNA Polymerase Beta
# Details: Pol beta primer extension/strand displacement, fluorescence kinetic; activity change, negative = inhibition: at 114 µM (top of the series)
# Source text: The base excision repair system in human cells is a target for therapeutic modulation of the response to irradiation treatment and DNA-damaging drugs. A key enzyme in this system is the bi-functional DNA polymerase known as DNA polymerase Beta (Pol Beta). The following is a homogeneous kinetic assay to study the primer extension and strand-displacement reaction catalyzed by pol beta.
# A stepwise description of the 1536-well assay is shown in next Table. Three microliters of reagents (buffer in column 3 and 4 as negative control and 10 nM Pol beta in columns 1, 2, and 5-48) was dispensed into 1,536-well black solid-bottomed plate. Compounds (23 nL) were transferred via Kalypsys pin tool equipped with 1536-pin array (10 nL slotted pins, V&P Scientific, San Diego, CA). The plates were incubated for 15 min at room temperature, and 1 uL substrate (50 nM final concentration) were added to start the reaction and immediately read at 0 min read on Viewlux reader. The plate were further incubated for 10 min at room temperature, and then read on Viewlux again. Throughout the screen, reagent bottle and all liquid lines were chilled and made light-tight to minimize reagent degradation. All screening operations were performed on a fully integrated robotic system (Kalypsys, San Diego, CA) containing one RX-130 and two RX-90 anthropomorphic robotic arms (Staubli, Duncan, SC). Library plates were screened starting from the lowest and proceeding to the highest concentration, and a double-dipping step of the highest concentration was required to access higher concentrations of compounds. Vehicle-only plates, with DMSO being pin-transferred to the entire column 5-48 compound area, were inserted uniformly at the beginning and the end of each library in order to monitor for and record any shifts in the background, which can be affected by reagent dispensers or loss in enzyme activity overtime. Screening data were corrected, normalized, and concentration-effect relationships were derived by using publicly-available curve fitting algorithms developed in-house (http://ncgc.nih.gov/pub/openhts). A four parameter Hill equation was fitted to the concentration-response data by minimizing the residual error between the modeled and observed responses.
# % is set by controls: 0 for no effect and ±100 for the full control effect; potency is the fitted concentration of half-maximal effect.
SMILES,Potency,"activity change, negative = inhibition"
Cc1ccc(CNC(=O)CCCn2c(=O)[nH]c3ccc(Br)cc3c2=O)cc1,"inconclusive: 17.8 µM [inhibitor, full curve]",
CC(=O)N(c1ccccc1C)C1CCCC1,inactive,
COc1ccc(C2CC(=O)OC3=C2C(=O)CC(C)(C)C3)c(OC)c1 (stereo unspecified),"inconclusive: 14.1 µM [inhibitor, full curve, poor fit]",
CCN1CC(CN(C)Cc2cn(-c3cccc(C)c3)nc2-c2cccc(F)c2)CC1=O (stereo unspecified),"inconclusive: 89.1 µM [inhibitor, single point]",
C/C=C/C(=O)Nc1cccc(C2=NOC3(C2)C[C@@H](C(N)=O)N(C(=O)c2cc([N+](=O)[O-])cc([N+](=O)[O-])c2C)C3)c1 (stereo partly specified),inactive,
Cc1cc(C(=O)COc2cccnc2[N+](=O)[O-])c(C)n1Cc1ccco1,"inconclusive: 11.2 µM [inhibitor, partial curve]",
CC(=O)c1ccc(NC(=O)NNS(=O)(=O)c2ccc([N+](=O)[O-])cc2)cc1,"inconclusive: 0.141 µM [inhibitor, full curve, poor fit]",
O=C(COC(=O)CCc1ccc(S(=O)(=O)N2CCCCC2)cc1)Nc1cccc2ccccc12,"inconclusive: 25.1 µM [inhibitor, single point]",
O=C1c2cccc3c([N+](=O)[O-])c(O)cc(c23)C(=O)N1Nc1ccccc1,inactive,
O=C(O)CCC(=O)N1CCc2cc(S(=O)(=O)N3CC=C(c4ccccc4)CC3)ccc21,active: 22.4 µM,
O=C(O)c1cc(-c2ccc(N3CCOCC3)cc2)nn1-c1ccc(F)cc1,inactive,
O=C(Nc1ccc2c(c1)CCC2)c1ccc(Br)s1,"inconclusive: 89.1 µM [inhibitor, single point]",
COc1ccccc1NS(=O)(=O)c1ccc(O)c(C(=O)OCC(=O)N2CCc3ccccc32)c1,,inconclusive: -49.2% [inhibitor]
O=C(CSc1nnc(-c2ccc(OC(F)F)cc2)o1)NC(=O)NCc1ccco1,active: 44.7 µM,
CCCCN(C)CCNC(=O)c1cc2c(-c3cccc(OC)c3)nn(C)c2s1,"inconclusive: 89.1 µM [inhibitor, single point]",
CCCCN1CCc2nc(N3CCN(c4ncccn4)CC3)ncc2C1,inactive,
Cc1ccc(N2CCN(C(=S)c3ccc(N(C)C)cc3)CC2)cc1,"inconclusive: 89.1 µM [inhibitor, single point]",
COCCCNC(=O)c1sc2nc(C)c(C(=O)Nc3ccc(C)cc3C)c(-c3ccc(Cl)cc3)c2c1N,inactive,
Cc1cc(NC(=O)c2sc(Nc3ccc(F)cc3)nc2N)no1,"inconclusive: 89.1 µM [inhibitor, single point]",
CC(=O)Nc1ccc(S(=O)(=O)N2CCC(Oc3ccc(-n4cnnn4)cc3)CC2)cc1,"inconclusive: 79.4 µM [inhibitor, partial curve, poor fit]",
Clc1ccc2c(N/N=C/c3cccnc3)ccnc2c1,"inconclusive: 12.6 µM [inhibitor, full curve]",
CC(=O)[C@@]1(O)[C@H](C)CC2C3CC=C4CC(OP(=O)(O)O)CC[C@]4(C)C3CC[C@@]21C (stereo partly specified),active: 50.1 µM,
Cc1ccc(C)c2nc(Cl)c(C#N)cc12,inactive,
O=C(O)c1cc(-c2ccc(/C=N/N3C(=O)C4C5C=CC(C6CC56)C4C3=O)o2)ccc1Cl (stereo unspecified),active: 39.8 µM,

SMILES,Potency,"activity change, negative = inhibition"
Cc1ccc2oc(=O)c(/C=C(\O)C(C)(C)C)nc2c1,inactive,
Cc1c(CNC(C)CCc2ccccc2)c(C(=O)O)c(C)n1Cc1ccc(F)cc1Cl (stereo unspecified),inactive,
O=C(c1ccccc1Cl)n1nc(-c2cccnc2)nc1NCc1ccc(F)cc1,inactive,
COc1ccc(C(=O)Nc2ccccc2C(=O)NC(Cc2ccc(O)cc2)C(=O)NNC(=O)c2ccccc2Cl)cc1 (stereo unspecified),"inconclusive: 17.8 µM [inhibitor, full curve]",
CCOC(=O)N1CCN(c2c(NCc3cccs3)c(=O)c2=O)CC1,"inconclusive: 25.1 µM [inhibitor, partial curve, poor fit]",
Cc1ccc(C)c(Nc2ccc(C(=O)NCCc3ccccc3)cn2)c1,"inconclusive: 89.1 µM [inhibitor, single point]",
CCC(C)(C)NS(=O)(=O)c1cc(CN2C(=O)c3cccnc3C2=O)ccc1OC,inactive,
CCOC(=O)c1c(N)sc(N)c1C(=O)OCC,inactive,
CNc1ccccc(-c2ccc3cc4c(cc3n2)OCO4)c1=O,"inconclusive: 50.1 µM [inhibitor, single point]",
CCOc1ccc(Br)cc1S(=O)(=O)NCCN1CCCC1,"inconclusive: 89.1 µM [inhibitor, single point]",
COc1cc2ccccc2cc1C(=O)Nc1ccc2oc(-c3cccc(Cl)c3Cl)nc2c1,,inconclusive: -41.8% [inhibitor]
Cc1cc(NC(=O)c2ccccc2)n(C(C)(C)C)n1,"inconclusive: 89.1 µM [inhibitor, single point]",
O=c1c2ccccc2sn1-c1ccccc1,inactive,
CCOc1ccc(C(C(=O)NC2CCCC2)N(C(=O)c2snc(C(N)=O)c2N)c2cccc(O)c2)cc1 (stereo unspecified),"inconclusive: 0.794 µM [inhibitor, single point]",
O=C(CCCn1c(=O)c2sccc2n(CC(=O)OCc2ccccc2)c1=O)NCc1ccco1,"inconclusive: 39.8 µM [inhibitor, partial curve]",
O=C(N/N=C/c1ccc(OC(=O)c2cccs2)cc1)c1cccc(F)c1,active: 8.91 µM,
O=C(CCC1CCCN(c2ncccn2)C1)N1CCN(c2ccccn2)CC1 (stereo unspecified),"inconclusive: 89.1 µM [inhibitor, single point]",
COC(=O)c1cc(CC(=O)c2ccc(O)cc2O)c(C)o1,inactive,
Cc1ccc(C(=O)COC(=O)c2cnccn2)cc1,"inconclusive: 39.8 µM [inhibitor, single point]",
Cc1cc(C)cc(C(=O)NCC(=O)OCC(=O)N2c3ccccc3NC(=O)C2(C)C)c1,active: 14.1 µM,
Cc1ccc(Cn2ccn(Cc3ccccc3C)c(=O)c2=O)cc1,"inconclusive: 100 µM [inhibitor, single point]",
O=S(=O)([O-])CCC[n+]1c(/C=C\Nc2ccccc2)oc2ccc(-c3ccccc3)cc21,"inconclusive: 17.8 µM [inhibitor, full curve]",
CCOC(=O)c1c(-c2ccco2)csc1NC(=O)CSc1nnc(N)s1,active: 28.2 µM,
O=C(c1ccc2c(c1)N(Cc1ccccc1)C(=O)c1ccccc1S2(=O)=O)N1CCN(c2ccccn2)CC1,"inconclusive: 28.2 µM [inhibitor, single point]",

SMILES,Potency,"activity change, negative = inhibition"
CCSc1ncc(Cl)c(C(=O)Nc2c(C(=O)Nc3ccc(Cl)cc3)oc3ccccc23)n1,inactive,
NS(=O)(=O)c1ccc(-c2cccc(/C=C3\SC(=O)NC3=O)c2)cc1,"inconclusive: 89.1 µM [inhibitor, single point]",
COC(=O)c1cc2c(C)nn(-c3ccccc3)c2s1,"inconclusive: 4.47 µM [inhibitor, single point]",
Cc1cccc(C)c1-n1cccc1/C=C1\SC(=S)N(c2cccc(C(=O)O)c2)C1=O,active: 39.8 µM,
COc1ccc(S(=O)(=O)N(CC(=O)NCc2ccc(C)cc2)c2ccc(Cl)cc2)cc1,inactive,
CCOc1ccc(C(=O)N2CCCCC2CCN2CCOCC2)cc1 (stereo unspecified),inactive,
O=C(Cn1c2ccccc2c(=O)c2ccccc21)Nc1cccc(F)c1,"inconclusive: 79.4 µM [inhibitor, single point]",
Cc1cnc(C(=O)Nc2ccc(C)c(S(=O)(=O)N(C)C)c2)cn1,inactive,
O=[N+]([O-])c1cc(/C=N\Nc2nccs2)ccc1O,active: 3.98 µM,
COc1cc(OC)c(C(=O)Nc2ccc(S(=O)(=O)Nc3ncccn3)cc2)cc1OC,"inconclusive: 100 µM [inhibitor, single point]",
COc1ccc(Cn2c(C(=O)O)c(CNC3CCCCCC3)c3ccc(OC)cc32)cc1,inactive,
COC(=O)C1C2C=CC3(CN(CC4CCCO4)C(=O)C13)O2 (stereo unspecified),"inconclusive: 100 µM [inhibitor, single point]",
CCc1cc(=O)oc2c3c(cc(OCC(=O)N[C@H](C(=O)O)[C@H](C)CC)c12)OC(C)(C)CC3,"inconclusive: 15.8 µM [inhibitor, single point]",
NC(=NC(=O)c1ccc(OCC(F)(F)F)nc1)c1ccccc1,"inconclusive: 1 µM [inhibitor, full curve]",
COc1ccc(CN2CCN(Cc3ccc(C)cc3)C(CCO)C2)cc1OC (stereo unspecified),inactive,
COc1ccc(NC(=S)N2CCN(c3ccccc3)CC2)c(OC)c1,"inconclusive: 25.1 µM [inhibitor, single point]",
Cc1cc(C)c(S(=O)(=O)/N=C2/C=C(Sc3ncn[nH]3)C(=O)c3ccccc32)cc1C,active: 79.4 µM,
COC(=O)c1ccccc1NC(=O)c1ccc(Cn2cc(Cl)cn2)o1,"inconclusive: 89.1 µM [inhibitor, single point]",
Oc1c(Cl)cc(Cl)cc1C=Nc1ccc2c(c1)OCCO2,"inconclusive: 25.1 µM [inhibitor, partial curve]",
CCc1ccc(-n2c(=O)c3ccccc3n(CC(=O)C(C)(C)C)c2=O)cc1,"inconclusive: 0.141 µM [inhibitor, full curve, poor fit]",
COc1ccc(-n2ncc3c(NCCC4=CCCCC4)ncnc32)cc1,inactive,
NC(=O)c1c(NC(=O)COC(=O)CSc2nnc(-c3ccc(Cl)cc3)o2)sc2c1CCC2,"inconclusive: 14.1 µM [inhibitor, full curve]",
CC1=Nc2ccccc2/C1=C/c1c(N)n2c(S(=O)(=O)CC(C)C)nsc2nc1=O,"inconclusive: 50.1 µM [inhibitor, partial curve]",

# Retrieved by compound from above:
SMILES,Potency,"activity change, negative = inhibition"
NC(=O)c1c(NC(=O)COC(=O)CSc2nnc(-c3ccc(Cl)cc3)o2)sc2c1CCC2,"inconclusive: 14.1 µM [inhibitor, full curve]",
CCc1ccc(-n2c(=O)c3ccccc3n(CC(=O)C(C)(C)C)c2=O)cc1,"inconclusive: 0.141 µM [inhibitor, full curve, poor fit]",
COc1cc(OC)c(C(=O)Nc2ccc(S(=O)(=O)Nc3ncccn3)cc2)cc1OC,"inconclusive: 100 µM [inhibitor, single point]",
CCOc1ccc(C(=O)N2CCCCC2CCN2CCOCC2)cc1 (stereo unspecified),inactive,
